No constants are given. Whether binding was seen depends on the method and setting. For part of these data: In cells and extracts the contact can be indirect. Some entries that bind do so weakly or less than the wild type.
How the values were obtained:
[1] = molecular target: YOD1, GAL4 AD or BD fusion (yeast two-hybrid) (UniProt Q5VVQ6); assay: two-hybrid; GAL4 AD (pGAD-C1) and BD (pGBD-C1) fusions co-transformed in S. cerevisiae PJ69-7A; growth on -HIS-LEU-TRP plates
[2] = molecular target: UBC13 (yeast two-hybrid fusion) (UniProt P61088); assay: as above
full length FLAG-YOD1 = full length FLAG-YOD1 (UniProt Q5VVQ6); assay: co-IP; tagged proteins co-transfected in HEK293 cells; IP with anti-HA, anti-FLAG or anti-MYC antibodies; Western blot

Amino acid sequences for entries named in this document (tags omitted).
UniProt P61088: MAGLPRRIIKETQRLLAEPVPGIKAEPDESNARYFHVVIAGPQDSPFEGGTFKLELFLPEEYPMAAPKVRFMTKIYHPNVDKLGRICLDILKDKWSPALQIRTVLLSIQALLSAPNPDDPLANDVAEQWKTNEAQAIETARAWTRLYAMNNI
UniProt Q13489: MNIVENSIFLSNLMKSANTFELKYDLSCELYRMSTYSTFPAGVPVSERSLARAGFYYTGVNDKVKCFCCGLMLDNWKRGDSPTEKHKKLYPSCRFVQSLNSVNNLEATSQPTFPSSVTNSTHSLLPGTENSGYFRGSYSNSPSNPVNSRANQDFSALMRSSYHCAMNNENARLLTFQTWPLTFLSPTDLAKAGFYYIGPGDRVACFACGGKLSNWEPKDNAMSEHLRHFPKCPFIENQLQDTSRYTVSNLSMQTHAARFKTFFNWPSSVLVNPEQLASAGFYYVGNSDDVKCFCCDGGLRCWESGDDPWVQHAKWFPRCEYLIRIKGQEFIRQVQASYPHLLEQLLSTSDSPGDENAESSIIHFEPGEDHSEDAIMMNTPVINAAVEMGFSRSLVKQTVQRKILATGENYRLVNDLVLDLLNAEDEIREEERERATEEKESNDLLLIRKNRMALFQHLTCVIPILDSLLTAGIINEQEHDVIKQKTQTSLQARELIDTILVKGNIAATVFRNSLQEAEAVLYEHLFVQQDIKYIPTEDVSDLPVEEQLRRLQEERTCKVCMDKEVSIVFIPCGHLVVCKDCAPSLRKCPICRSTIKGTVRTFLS

Row | Substance | binding [1] | binding [2] | binding (full length FLAG-YOD1)
1 | cIAP2 (AD fusion, yeast two-hybrid) (from UniProt Q13489 1-604) (enzyme) | binds weakly | binds | 
2 | p62 in HEK293 cells (construct not told) (from UniProt Q13501 1-440) |  |  | no binding

— article PMC5340530
